Reference: publication PMC8885668
Construct, isoform or probe ends are uncertain for at least one entry. Weaker means in comparison with the reference protein, sequence or condition of that experiment. For some assays here: Tags and fusion partners may be left off the protein sequences shown.

The chains behind the UniProt entries cited, without tags or fusion partners. Residues count along the entry.
UniProt P07288, 25-261: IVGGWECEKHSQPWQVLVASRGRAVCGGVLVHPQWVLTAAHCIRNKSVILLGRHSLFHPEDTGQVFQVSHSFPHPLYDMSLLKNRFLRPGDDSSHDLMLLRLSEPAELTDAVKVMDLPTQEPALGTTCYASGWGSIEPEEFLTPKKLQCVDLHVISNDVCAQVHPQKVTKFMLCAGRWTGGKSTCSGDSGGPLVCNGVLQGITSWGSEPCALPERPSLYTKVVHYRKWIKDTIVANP

Columns and labels:
[1] = target: prostate-specific antigen (PSA) (UniProt P07288); assay: electrochemical aptasensor (DPV); conditions: 100 ng/mL, slight change in current density; 5' NH2-(CH2)6, amide-coupled to MPA on electrode; DPV in 0.1 M PBS pH 7.4, 5.0 mM K4[Fe(CN)6]/K3[Fe(CN)6] (1:1), 0.1 M KCl; 50 nM aptamer immobilized; 40 min protein incubation; BSA-blocked; single-stranded …
[2] = target: T1, carcinoembryonic antigen (CEA) (UniProt P06731); assay: electrochemical aptasensor (DPV); conditions: 100 ng/mL, slight change in current density; 5' NH2-(CH2)6, amide-coupled to MPA on electrode; DPV in 0.1 M PBS pH 7.4, 5.0 mM K4[Fe(CN)6]/K3[Fe(CN)6] (1:1), 0.1 M KCl; 50 nM aptamer immobilized; 40 min protein incubation; BSA-blocked; single-stranded …
T1 sequence (looked up, limits assumed): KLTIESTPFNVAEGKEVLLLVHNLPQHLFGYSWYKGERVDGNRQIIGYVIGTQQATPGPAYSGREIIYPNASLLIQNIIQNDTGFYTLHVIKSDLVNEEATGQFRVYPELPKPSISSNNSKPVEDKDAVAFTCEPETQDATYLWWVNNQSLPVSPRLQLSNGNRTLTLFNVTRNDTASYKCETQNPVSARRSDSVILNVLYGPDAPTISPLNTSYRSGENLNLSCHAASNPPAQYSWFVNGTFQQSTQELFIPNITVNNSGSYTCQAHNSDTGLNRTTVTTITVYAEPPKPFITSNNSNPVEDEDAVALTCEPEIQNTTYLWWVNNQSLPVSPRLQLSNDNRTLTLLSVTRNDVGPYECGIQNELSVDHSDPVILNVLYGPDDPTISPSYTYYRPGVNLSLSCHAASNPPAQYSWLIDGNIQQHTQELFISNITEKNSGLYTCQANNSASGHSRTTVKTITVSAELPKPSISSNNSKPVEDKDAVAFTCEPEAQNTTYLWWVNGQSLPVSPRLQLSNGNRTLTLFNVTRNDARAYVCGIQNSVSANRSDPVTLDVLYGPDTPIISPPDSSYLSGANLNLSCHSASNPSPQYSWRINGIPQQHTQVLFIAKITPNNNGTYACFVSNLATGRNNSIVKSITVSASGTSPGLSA

Sequence: GGGCCGTCGAACACGAGCATGGTGCGTGGACCTAGGATGACCTGAGTACTGTCC [anti-HER2 aptamer]
- binding result [1]: binds more weakly
- binding result [2]: binds more weakly
